Among the data in PubChem BioAssay AID1347423 (Functional Genomics Laboratory (NCATS/FGL), 2020) are z-score values, retold here.

Among all 52,000 sequences or so, about 210 (0.4%) were called active.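 Rule for the calls: active = gene whose silencing raises cell survival under the drug, median off-target-corrected z-score across its silencing RNAs 2 or more; inactive = the rest.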 Some of the results follow.

This experiment is described as follows: Resistance to Poly (ADP-Ribose) Polymerase inhibitor: Gene Identification via Genome-wide siRNA Screen. Conditions: mouse BRCA2 R2336H ES cells, olaparib, CellTiter-Glo viability; hits give high values. The source says: The role of Poly (ADP-Ribose) Polymerase (PARP) proteins in DNA repair has been elegantly utilized for the synthetic lethality-based treatment of BRCA-deficient tumors by PARP inhibitors. PARP inhibitors are now being used for treatment of BRCA-deficient breast and ovarian cancers. […] While several mechanisms of drug resistance have been identified, majority of these tumors develop drug resistance due to unknown causes. To identified novel regulators of chemo-resistance in BRCA2-mutated cells, we performed a genome wide siRNA library screen. We have found ES cells expressing a hypomorphic allele of BRCA2 to be hypersensitive to PAPP inhibitors (such as olaparib). We used ES cells expressing a mutant allele of BRCA2 that has a single amino acid substitution at position 2336 (arginine to histidine, R2336H). The screen was conducted using an Ambion (Thermo) Silencer Mouse Genome siRNA collection. The library targets 17,575 mouse genes with 3 siRNAs per gene. TET2 (E130014J05Rik) was identified as a top candidate.
Transfections were performed in 384 well plates (Corning 3707). Plates were coated with 0.1% gelatin in H2O overnight at ambient temperature. Gelatin solution was aspirated (BioTek EL406) and siRNAs were printed using a Bravo VPrep liquid handler integrated within a BioCel automation platform (Agilent). Cell viability was measured using CellTiter Glo (Promega). For transfections, […] of serum free media containing Lipofectamine RNAiMax […] was added to wells containing siRNA (0.8pmol). Lipid and siRNA were allowed to complex for 45 min at ambient temperature before addition of 1000 cells in DMEM, 30% FBS to yield final transfection mixtures containing 20 nM siRNA in DMEM, 15% FBS. PARPi (olaparib, AZD2281) was added 48 h post-transfection (500 nM) and viability (CellTiter Glo, Promega) was assayed 72 h later on a PerkinElmer Envision 2104 Multilabel plate reader. Ambion Silencer Select Negative Control #2 was incorporated on all screening plates (16 wells) and the median negative control value on each plate was used for normalization. An siRNA targeting Trp53 was used as a positive control. This control yielded a median protective effect of ~1.9 fold versus negative control throughout the screen. The median absolute deviation (MAD) based z-score was calculated for each siRNA. Genes were then ranked by taking the median value for all siRNAs tested against a given gene. Scores were also adjusted for seed-based off-target effects to help deprioritize likely false positives.
For orientation: Cellular ATP, detected with luciferase, serves as a proxy for viable cell number.
Consider GCAUUUUGACCCAAGUGUUTT against Foxq1, for which the z-score was inactive: 0.0651.

Consider CCCAGAACUAUUCAACACUTT against Sema4g, for which the z-score was inactive: 1.4.

For the sequence “GCUACGUCUUUUUUAGGGCTT against 1110025G12Rik”, the z-score was inactive: 1.69.

Consider GUGAAGGCCCAUGGCAAGATT against Hbb-b1, for which the z-score was inactive: -1.73.

GGACCUAAAGAUAAUAAGUTT against Pex3: the z-score was inactive: -0.406.

Turning to AUAAGGAUGUCCAUCUUGCTT against Olfr884, the z-score was inactive: -0.243.

For the sequence GGGAACACCCACGAACUCATT against Polrmt, the z-score is inactive: 1.02.

For CGACGAAGUGGUCGGAAUUTT against Cryzl1, the z-score is inactive: -0.0662.

On to GCAAAGCUUCUUUUGGGAUTT against Runx2, for which the z-score is inactive: 0.243.

In the case of GGCUGCACAAACAUGGUUCTT against Pard6a, the z-score was inactive: -0.00401.

Take “GCAUUGUCCAGGUAUCUCATT against B230206H07Rik”: the z-score was inactive: -0.87.

In the case of GGACUUGGACUGUGAAAACTT against Vgll4, the z-score was inactive: -1.47.

With GGAGAUUUUGAAUAGUAUCTT against Smc4l1, the z-score is inactive: 0.81.

On to GGAUUUCACAGUCAAAAUUTT against Insrr, for which the z-score is inactive: 0.16.

Take GCAAGACGUGACCUGAAAGTT against Gpc3: the z-score was inactive: -0.384.

In the case of GGAAAAUGACACAGGUAUCTT against Entpd2, the z-score was inactive: 0.0364.

As to GGAUCUGAAGACAGUGUUUTT against Dap3, the z-score was inactive: 3.39.

Turning to CCUAACUAAGCUUUCCUUUTT against V2r15, the z-score is inactive: -0.0904.

In the case of GGAACAAAUGGACGAUCUGTT against Lgtn, the z-score is inactive: 2.34.

GGGAGAAGUGCUGUGGAUUTT against Fras1: the z-score is inactive: 0.552.

As for GGAACAAGAAGUUGAAACATT against Capn6, the z-score is inactive: -2.01.

As to GGAUAGCAUCCUCUUGCAUTT against Fa2h, the z-score was inactive: 0.336.

With GGCUGAGCUGAUCUUCUUATT against Wnt8a, the z-score was inactive: 0.668.

Regarding CCCGGAAUAAGACAAUUUCTT against Olfr788, the z-score is inactive: 0.143.

Regarding GGUCCAGAAGCAGAUGCUUTT against Zdhhc15, the z-score was inactive: -2.28.

For the sequence GGUCAAAGUGAUUGUGUGUTT against Cdh16, the z-score is inactive: 0.535.

With GAGAACUCUCUAAACAAGUTT against Cks2, the z-score was inactive: -0.465.

Regarding GGCAAAGAAAACAUCAGAGTT against Lap3, the z-score is inactive: 0.0275.

As for CCUCAAUUUCGAAGACCCUTT against Asb6, the z-score is inactive: 1.02.

Turning to GCUGUUUAAUCUGUUAUGCTT against Rps17, the z-score is inactive: -1.02.

As to GGCUGAUGUGAUGAUUGUATT against Ndufs7, the z-score was inactive: -0.3.

On to GCUAGCAGGCUCAGUUUACTT against D10Wsu93e, for which the z-score is inactive: -0.548.

In the case of GGUGUUCGACGUGACCAAATT against Pgrmc1, the z-score is inactive: 1.88.

For GGAAGAACUGUCAAAGAAATT against Cd3g, the z-score was inactive: 0.565.

In the case of UGGUUUCUCAAGCACUAGUTT against AW146299, the z-score was inactive: -0.12.

For GGGCAACAGCUUCCAUAAATT against Csrp1, the z-score was inactive: 0.705.

As to GGAGAUCCACCUUUUCAAATT against Fap, the z-score is inactive: -0.111.

With GGCAAAUCCUCAAAGAUGUTT against Abcg5, the z-score is inactive: 0.366.

Consider GGGAUCUCCAUACUCUCCUTT against Prima1, for which the z-score is inactive: -1.28.

In the case of “GGAGAAGCUAAAAUGUGAGTT against 5730589L02Rik”, the z-score was inactive: 0.512.

In the case of CCAAAUUAGCUUAUGUUCUTT against Sgol1, the z-score is inactive: -0.503.

“GGAGCAGUGAUGGAGAAUATT against C230012O17Rik”: the z-score is inactive: -1.7.

As to GGUUCCUUAAACAUUCAGATT against Sas, the z-score was inactive: 0.239.

As to GGAAGAAUCUGAUUCGUAATT against Snapc5, the z-score was inactive: 0.261.

With CGACCCUAAGAAGAAUUUUTT against Nsdhl, the z-score was inactive: 0.55.

As for “GGAAUUACCAGUGAAAAAUTT against 9630054F20Rik”, the z-score is inactive: 0.212.

With GGAACUGUGUGUCUUCUCCTT against Kcns3, the z-score is inactive: -0.3.

GGAAAAAAAAGGAUUUCUCTT against Pnkp: the z-score is inactive: -0.392.

As to “CGGAGUCAUACUUUUUCGATT against 9230105E10Rik”, the z-score was inactive: 0.44.

On to GGAGAAAGGUGGUUUGGUATT against Hcngp, for which the z-score is inactive: -1.24.

GGAAUAUGUGUGGACUAGATT against Tor3a: the z-score is inactive: 0.0178.

Consider “CCUACACAUCCUUAAAGUGTT against D330012D11Rik”, for which the z-score is inactive: 1.16.

Consider “GCAAAACCUAACUAUGUUUTT against 2410017I18Rik”, for which the z-score was inactive: -1.84.

Turning to GGUCUGGAGACUUUCAGUCTT against Hexa, the z-score is inactive: 0.767.

Turning to GGAUUUUAAUGGGCUAUGCTT against Zfp114, the z-score was inactive: -0.366.

UCUGUGGACCAGGAUUUGGTT against Pcsk1n: the z-score is inactive: -1.1.

With GGAAAAUGGAAUUUGAAGCTT against Ccnb2, the z-score is inactive: -0.144.

Regarding “GCUACUGUACAUCUACUACTT against 2810468K17Rik”, the z-score was inactive: -0.655.

On to GGACUUGAAGAUGUACCAGTT against Il12a, for which the z-score was inactive: -0.0396.

With GCUAGGUGUUUGAAGCCUCTT against Mixl1, the z-score was inactive: -0.726.

With CCUUUAGAGGAAUUCACUUTT against Npas2, the z-score is inactive: -0.324.

For GGUCAUUGCAUCUGACAAGTT against Pcdha2, the z-score is inactive: -0.34.

For GGCAGCUGAUCAGAAAUCATT against Gabrg3, the z-score was inactive: 0.942.

In the case of GGUGUGUAUGGUGCUAGGATT against Olfr1507, the z-score is inactive: 1.59.

In the case of GACCAUCUCCUUUACGGGCTT against Olfr71, the z-score was inactive: 0.721.

For the sequence GGUUUUUUUUUCCAGUCCATT against Stam2, the z-score was inactive: -1.04.

For the sequence CCUAUGAGUCUUACGUGAATT against Cyp4x1, the z-score was inactive: -0.593.

On to GGUAAGCAUGGAAAGGCUGTT against Prdm15, for which the z-score is inactive: 0.827.

As to GGCUCUUAACUAUGAAAUATT against Apcs, the z-score was inactive: 0.274.

As for GAUUGCCAAAGACAAAAGCTT against V1rh18, the z-score was inactive: -0.437.

As to GGUAUACUAACUUUUAAGGTT against Fmo1, the z-score is inactive: -0.518.

As to GCAUACUCACGUCCACUCATT against Gfi1b, the z-score is inactive: -0.553.

Take “GCCUACGCUCUAUCUAGCUTT against 2900091E11Rik”: the z-score is inactive: -0.0221.

In the case of GGAACAAGUAAAAUUCGUCTT against Stk22b, the z-score was inactive: 1.54.

For the sequence GCAAAAGCUUUACUUAGUATT against Prlpi, the z-score is inactive: 0.0719.

On to GCUCUCGAUCAGGAUGUAATT against Vsx1, for which the z-score was inactive: -0.859.

For GCUCUGUUAUAGCCAUGGUTT against Spib, the z-score was inactive: -0.978.

Consider GGCUUUGAAUUUCUAAGACTT against Olfr125, for which the z-score was inactive: -0.0462.

With GGUAGCUUACAAACCAUCATT against Map3k7ip1, the z-score was inactive: -0.689.

Take GGAAUACACUCAAUAUUGATT against Nupl1: the z-score was inactive: -1.17.

As to CGCGCAAUGCUCCUUUGAGTT against Retnlb, the z-score is inactive: -0.283.

GUCAAAAUGACCAAAGAUGTT against Mte1: the z-score was inactive: 0.106.

On to GGUAGCUGUUUAGGACAAUTT against Arl6ip5, for which the z-score was inactive: -1.38.

Take GCAGGAUUAUUUGUCACUUTT against Lims2: the z-score was inactive: 0.73.

Consider GGAAAUCCUCAACUUCAUUTT against Cyp2b13, for which the z-score was inactive: -0.433.

Turning to GGACCAAGUGGAGAAAGAATT against Nkx6-1, the z-score was inactive: -2.76.

In the case of GGAAAGGAAUCCAAAAAUCTT against Lias, the z-score is inactive: 1.44.

Regarding GAUAAUGGUCACUAAAUCUTT against V1rc21, the z-score was inactive: -0.418.

Regarding “GGCCUUCCGCAUUUUAUCATT against A530054K11Rik”, the z-score was inactive: 0.635.

For GGAGAUUUGUUGUUAAGGGTT against Pcdhb2, the z-score is inactive: -0.669.

As to GGACCUGACCUACUCGUGUTT against Rxrb, the z-score is inactive: 0.714.

Consider GAAGCAGAUACCAAAACAATT against Kir3dl1, for which the z-score is inactive: -0.506.

Take GGAAAGUGUGGUGACUUCATT against Olfr860: the z-score is inactive: -2.78.

Consider CCAACUCUAAUAAUAACAGTT against BC014805, for which the z-score is inactive: -1.38.

“GGACCACCAAGAGGAAGUGTT against F730004D16Rik”: the z-score was inactive: 0.219.

Regarding “GGAUCUUCAGGUUCUGAUGTT against 2010311D03Rik”, the z-score is inactive: -0.019.

As for GGCCCUACAAACUAUUAACTT against Impa2, the z-score was inactive: 0.885.

Consider CGCACUGAAGGGAUGCGAUTT against Dyrk2, for which the z-score was inactive: 0.664.

Regarding CCCUCAAAACCUUAAUGGGTT against B3galt1, the z-score is inactive: -0.053.

Take CCGACUAUCUAUCUACUGATT against Agxt2: the z-score was inactive: 0.185.

CCCAGCUAGACAGUCUUUCTT against Il11: the z-score was inactive: -0.86.

Regarding GCUUCUUCCUUAGAUGGCATT against Kcnb1, the z-score was inactive: 0.224.

As for GUUCAAGACGGAGAAGAGGTT against Gpr27, the z-score is inactive: 0.961.

As to GCAUCUGAAAAUCCUCAACTT against Cxcl12, the z-score is inactive: -0.198.

As for “CGGGCAUUAAGGUAUGGAATT against A630024J02Rik”, the z-score was inactive: -0.39.
